# Measured values published in the supplement of paper PMC10032668.
# Protein sequences, listed by entry. Tags and fused reporters are not part of them.
# CKS2, P33552, UniProt P33552, whole entry: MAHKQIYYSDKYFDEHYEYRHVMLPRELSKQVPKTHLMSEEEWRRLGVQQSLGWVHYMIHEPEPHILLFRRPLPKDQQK
# PPP2R5D, Q14738, UniProt Q14738, whole entry: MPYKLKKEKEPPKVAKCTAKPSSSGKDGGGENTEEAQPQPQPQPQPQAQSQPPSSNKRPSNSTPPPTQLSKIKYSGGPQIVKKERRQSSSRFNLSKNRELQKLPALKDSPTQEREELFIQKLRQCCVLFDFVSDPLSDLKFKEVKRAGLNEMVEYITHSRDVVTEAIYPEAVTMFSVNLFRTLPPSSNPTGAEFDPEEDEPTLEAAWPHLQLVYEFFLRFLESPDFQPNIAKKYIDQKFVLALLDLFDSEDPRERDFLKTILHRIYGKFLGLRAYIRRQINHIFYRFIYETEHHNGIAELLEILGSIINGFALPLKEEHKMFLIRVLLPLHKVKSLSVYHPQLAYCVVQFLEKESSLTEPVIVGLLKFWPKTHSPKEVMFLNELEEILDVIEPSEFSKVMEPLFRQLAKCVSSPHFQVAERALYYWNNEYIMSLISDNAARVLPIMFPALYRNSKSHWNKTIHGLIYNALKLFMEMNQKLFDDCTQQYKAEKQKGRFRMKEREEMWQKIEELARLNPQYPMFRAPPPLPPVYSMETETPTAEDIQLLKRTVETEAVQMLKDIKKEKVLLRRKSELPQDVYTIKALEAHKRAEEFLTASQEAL
# MORF4L2, Q15014, UniProt Q15014, whole entry: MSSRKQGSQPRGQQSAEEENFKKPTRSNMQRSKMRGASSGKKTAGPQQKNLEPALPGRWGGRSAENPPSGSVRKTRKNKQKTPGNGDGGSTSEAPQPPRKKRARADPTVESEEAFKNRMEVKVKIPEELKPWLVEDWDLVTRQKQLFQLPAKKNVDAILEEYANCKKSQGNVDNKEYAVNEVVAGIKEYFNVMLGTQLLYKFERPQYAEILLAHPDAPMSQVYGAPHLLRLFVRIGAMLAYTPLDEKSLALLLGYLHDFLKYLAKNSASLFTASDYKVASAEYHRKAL
# PIN1, Q13526, UniProt Q13526, whole entry: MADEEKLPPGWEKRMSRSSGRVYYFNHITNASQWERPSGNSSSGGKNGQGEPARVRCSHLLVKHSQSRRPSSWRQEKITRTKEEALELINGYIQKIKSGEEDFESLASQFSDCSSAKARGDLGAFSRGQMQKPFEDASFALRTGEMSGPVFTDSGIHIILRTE
# PLK1, P53350, UniProt P53350, whole entry: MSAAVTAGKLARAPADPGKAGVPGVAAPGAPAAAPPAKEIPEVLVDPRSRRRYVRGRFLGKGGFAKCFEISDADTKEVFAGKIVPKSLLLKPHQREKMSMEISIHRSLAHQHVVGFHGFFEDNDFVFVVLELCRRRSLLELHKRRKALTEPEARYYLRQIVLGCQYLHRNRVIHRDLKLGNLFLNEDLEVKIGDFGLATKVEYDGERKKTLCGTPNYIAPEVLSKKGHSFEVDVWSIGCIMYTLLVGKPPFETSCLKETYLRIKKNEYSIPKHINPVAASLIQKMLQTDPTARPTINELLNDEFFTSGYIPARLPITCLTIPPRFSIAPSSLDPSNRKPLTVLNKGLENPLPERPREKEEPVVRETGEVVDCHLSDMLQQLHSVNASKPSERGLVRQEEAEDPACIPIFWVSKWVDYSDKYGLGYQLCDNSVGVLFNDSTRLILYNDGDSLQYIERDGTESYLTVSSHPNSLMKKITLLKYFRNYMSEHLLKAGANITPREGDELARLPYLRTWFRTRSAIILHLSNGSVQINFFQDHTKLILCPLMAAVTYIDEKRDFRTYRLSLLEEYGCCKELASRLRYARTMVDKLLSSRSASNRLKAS
# ± gives the standard deviation of the averaged measurements. The list shows a part of the results. Only hits are listed; about a third recur on repeated control peptides.
# Experiments:
# Test in all cases: PRISMA enrichment of interactor (LFQ) in peptide spot vs all other peptide spots (log2 fold change); higher = stronger / more specific binding of the interactor to the peptide
# ALYREF, Q86V81 = biological target: ALYREF, Q86V81
# Procedure: (§1)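 PRISMA: 15-aa overlapping tiles (offset 8 aa) of 60 microproteins, plus SOS1/GLUT1 control peptides, were spot-synthesized on cellulose membranes in triplicate. Membranes were incubated with benzonase-treated HEK293T lysate, and bound proteins were identified by LC-MS/MS with LFQ. Enrichment is the log2 fold change of each protein in one spot versus all other spots. Only interactors passing the significance cutoff are listed.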
# C19orf53, Q9UNZ5 = biological target: C19orf53, Q9UNZ5
# Procedure: as §1
# CHTOP, Q9Y3Y2 = biological target: CHTOP, Q9Y3Y2
# Procedure: as §1
# CKS2, P33552 = biological target: CKS2, P33552
# Procedure: as §1
# CXorf56, Q9H5V9 = biological target: CXorf56, Q9H5V9
# Procedure: as §1
# GABARAPL2, P60520 = biological target: GABARAPL2, P60520
# Procedure: as §1
# GAR1, Q9NY12 = biological target: GAR1, Q9NY12
# Procedure: as §1
# PPP2R5D, Q14738 = biological target: PPP2R5D, Q14738
# Procedure: as §1
# PRKCSH, P14314 = biological target: PRKCSH, P14314
# Procedure: as §1
# WDR5, P61964 = biological target: WDR5, P61964
# Procedure: as §1
# CFAP20, Q9Y6A4 = biological target: CFAP20, Q9Y6A4
# Procedure: as §1
# CLTA, P09496 = biological target: CLTA, P09496
# Procedure: as §1
# CLTB, P09497 = biological target: CLTB, P09497
# Procedure: as §1
# CLTCL1, P53675 = biological target: CLTCL1, P53675
# Procedure: as §1
# CSNK1A1, P48729 = biological target: CSNK1A1, P48729
# Procedure: as §1
# CSNK1D, P48730 = biological target: CSNK1D, P48730
# Procedure: as §1
# CSNK1E, P49674 = biological target: CSNK1E, P49674
# Procedure: as §1
# DDX49, Q9Y6V7 = biological target: DDX49, Q9Y6V7
# Procedure: as §1
# DNAJA3, Q96EY1 = biological target: DNAJA3, Q96EY1
# Procedure: as §1
# EMG1, Q92979 = biological target: EMG1, Q92979
# Procedure: as §1
# EWSR1, Q01844 = biological target: EWSR1, Q01844
# Procedure: as §1
# FIP1L1, Q6UN15 = biological target: FIP1L1, Q6UN15
# Procedure: as §1
# FOCAD, Q5VW36 = biological target: FOCAD, Q5VW36
# Procedure: as §1
# HAGH, Q16775 = biological target: HAGH, Q16775
# Procedure: as §1
# LARP7, Q4G0J3 = biological target: LARP7, Q4G0J3
# Procedure: as §1
# MORF4L2, Q15014 = biological target: MORF4L2, Q15014
# Procedure: as §1
# NUDT16L1, Q9BRJ7 = biological target: NUDT16L1, Q9BRJ7
# Procedure: as §1
# PIN1, Q13526 = biological target: PIN1, Q13526
# Procedure: as §1
# PLK1, P53350 = biological target: PLK1, P53350
# Procedure: as §1
# [1] = substrate: PPIF, P30405
# Procedure: as §1
# PRMT1, Q99873 = biological target: PRMT1, Q99873
# Procedure: as §1
# RAB34 = biological target: RAB34
# Procedure: as §1
# RBMX, P38159 = biological target: RBMX, P38159
# Procedure: as §1
# ZNF22, P17026 = biological target: ZNF22, P17026
# Procedure: as §1
# ZNF687, Q8N1G0 = biological target: ZNF687, Q8N1G0
# Procedure: as §1
binder,measurement,setting,value
RRTALSWWESVDITG [THAP7],PRISMA enrichment of interactor (log2),"ALYREF, Q86V81",5.44
same,PRISMA enrichment of interactor (log2),"C19orf53, Q9UNZ5",6.84
same,PRISMA enrichment of interactor (log2),"CHTOP, Q9Y3Y2",5.62
same,PRISMA enrichment of interactor (log2),"CKS2, P33552",5.05
same,PRISMA enrichment of interactor (log2),"CXorf56, Q9H5V9",4.7
same,PRISMA enrichment of interactor (log2),"GABARAPL2, P60520",6.03
same,PRISMA enrichment of interactor (log2),"GAR1, Q9NY12",5.63
same,PRISMA enrichment of interactor (log2),"PPP2R5D, Q14738",5.28
same,PRISMA enrichment of interactor (log2),"PRKCSH, P14314",5.62
same,PRISMA enrichment of interactor (log2),"WDR5, P61964",5.63
MRPVEELWLGTPPLL [NAV2-AS2],PRISMA enrichment of interactor (log2),"ALYREF, Q86V81",6.15 ± 1.4
same,PRISMA enrichment of interactor (log2),"C19orf53, Q9UNZ5",7.33
same,PRISMA enrichment of interactor (log2),"CFAP20, Q9Y6A4",4.44
same,PRISMA enrichment of interactor (log2),"CLTA, P09496",6.36
same,PRISMA enrichment of interactor (log2),"CLTB, P09497",5.49
same,PRISMA enrichment of interactor (log2),"CLTCL1, P53675",4
same,PRISMA enrichment of interactor (log2),"CSNK1A1, P48729",5.27
same,PRISMA enrichment of interactor (log2),"CSNK1D, P48730",4.98
same,PRISMA enrichment of interactor (log2),"CSNK1E, P49674",5.4
same,PRISMA enrichment of interactor (log2),"CXorf56, Q9H5V9",6.53
same,PRISMA enrichment of interactor (log2),"DDX49, Q9Y6V7",5.58
same,PRISMA enrichment of interactor (log2),"DNAJA3, Q96EY1",4.67
same,PRISMA enrichment of interactor (log2),"EMG1, Q92979",5.67
same,PRISMA enrichment of interactor (log2),"EWSR1, Q01844",5.61
same,PRISMA enrichment of interactor (log2),"FIP1L1, Q6UN15",4.58
same,PRISMA enrichment of interactor (log2),"FOCAD, Q5VW36",3.92
same,PRISMA enrichment of interactor (log2),"GABARAPL2, P60520",5.73
same,PRISMA enrichment of interactor (log2),"HAGH, Q16775",10
same,PRISMA enrichment of interactor (log2),"LARP7, Q4G0J3",6.34
same,PRISMA enrichment of interactor (log2),"MORF4L2, Q15014",4.83
same,PRISMA enrichment of interactor (log2),"NUDT16L1, Q9BRJ7",5.3
same,PRISMA enrichment of interactor (log2),"PIN1, Q13526",4.84
same,PRISMA enrichment of interactor (log2),"PLK1, P53350",5.34
same,PRISMA enrichment of interactor (log2),[1],6.68
same,PRISMA enrichment of interactor (log2),"PRMT1, Q99873",4.84
same,PRISMA enrichment of interactor (log2),RAB34,3.75
same,PRISMA enrichment of interactor (log2),"RBMX, P38159",4.77
same,PRISMA enrichment of interactor (log2),"ZNF22, P17026",4.47
same,PRISMA enrichment of interactor (log2),"ZNF687, Q8N1G0",7.44

# Part of the list above in a different format.
binder	measurement	setting	value
MRPVEELWLGTPPLL [NAV2-AS2]	PRISMA enrichment of interactor (log2)	CLTA, P09496	6.36
same	PRISMA enrichment of interactor (log2)	CLTB, P09497	5.49
